Laboratory results published in patent US20240218022A1, “ANTI-VISTA MACROCYCLIC PEPTIDES AND COMPOSITIONS” (BRISTOL-MYERS SQUIBB COMPANY, priority 2022, published 2024).
pIC50: −log10 of the molar value. Like-named read-outs stand apart in the source and are kept apart here. At least one structure is not confirmed: it was looked up by name or label, or the drawing left a doubt. Starred links: 1 amine or outer side, 2 acyl side, 3 side chain; linkers in the order of their positions; H or OH if unused. Positions of bridges follow the written chain, without caps; N, C: chain ends. Non-standard residues stand in square brackets, D forms with d. Residues, ends and D or L forms follow the SMILES beside them. Phe(2,4-F2) = N[C@@H](Cc1ccc(F)cc1F)C(=O)O; Phe(3-Me) = Cc1cccc(C[C@H](N)C(=O)O)c1; βAsp = O=C(O)[C@H](CC(=O)[*:2])N[*:1]; Ahp(2) = CCCCC[C@H](N)C(=O)O; NMeNle = CCCC[C@H](NC)C(=O)O; Tle = CC(C)(C)[C@H](N)C(=O)O; NHexGly = CCCCCCNCC(=O)O; Nle = CCCC[C@H](N)C(=O)O; Aun = NCCCCCCCCCCC(=O)O; AEEA = NCCOCCOCC(=O)O

Target: T1, mouse VISTA (mVISTA) (Mus musculus, UniProt Q9D659)
T1 construct: expressed in transfected cells; host or cells: Human embryonic kidney 293T cells
T1 sequence (Q9D659 33-308): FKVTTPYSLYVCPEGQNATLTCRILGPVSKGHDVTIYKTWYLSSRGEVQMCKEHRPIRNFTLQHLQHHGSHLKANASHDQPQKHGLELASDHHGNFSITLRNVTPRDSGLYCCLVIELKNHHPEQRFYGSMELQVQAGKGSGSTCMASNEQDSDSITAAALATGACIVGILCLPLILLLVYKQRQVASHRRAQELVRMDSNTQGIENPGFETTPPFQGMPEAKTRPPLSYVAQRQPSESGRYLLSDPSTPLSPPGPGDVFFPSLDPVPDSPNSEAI
Experiment: Cell-Based Binding High-Content Assay For mVISTA (HC CBA mVISTA)
How it was run: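 mVISTA-293T, 4,000 cells/well; cpd ± washout step; biotin-peptide 2 nM final, 30 min RT; SA-Alexa 647 30 min; formaldehyde/Hoechst fix; HCS imaging; 4PL IC50.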

Work on `CCCCCCN1CC(=O)N[C@@H](Cc2ccc(O)cc2)C(=O)N[C@@H](CCCC)C(=O)N[C@@H](CC(N)=O)C(=O)N[C@@H](CCCNC(=N)N)C(=O)N(C)[C@@H](CCCC)C(=O)N[C@@H](CCCCC)C(=O)N2CCC[C@H]2C(=O)N[C@@H](C(C)(C)C)C(=O)N[C@@H](CO)C(=O)N[C@H](C(=O)NCC(=O)N[C@@H](CC(=O)NCCOCCOCC(=O)N[C@@H](CC(=O)O)C(=O)NCCOCCOCC(=O)NCCCCCCCCCCC(=O)O)C(=O)O)CSCC(=O)N[C@@H](Cc2ccccc2)C(=O)N[C@@H](Cc2c[nH]c3ccccc23)C(=O)N[C@@H](CC(=O)O)C1=O` [compound 2112] ({CH2CO}-FWD[NHexGly]Y[Nle]NR[NMeNle][Ahp(2)]P[Tle]SCG[βAsp][AEEA]D[AEEA][Aun]-OH; thioether N-14) yielded a pIC50 (read-out: HC CBA mVISTA IC50) of 7.74.
`CCCCCCN1CC(=O)N[C@@H](Cc2ccc(O)cc2)C(=O)N[C@@H](CC(C)C)C(=O)N[C@@H](CC(N)=O)C(=O)N[C@@H](CCCNC(=N)N)C(=O)N[C@@H](CC(C)C)C(=O)N[C@@H](CCCCC)C(=O)N2CCC[C@H]2C(=O)N[C@@H](C(C)C)C(=O)N[C@@H](C(C)C)C(=O)N[C@H](C(=O)N[C@@H](CO)C(=O)O)CSCC(=O)N[C@@H](Cc2ccccc2)C(=O)N[C@@H](Cc2ccc(F)cc2F)C(=O)N[C@@H](CC(=O)O)C1=O` [compound 1337] ({CH2CO}-F[Phe(2,4-F2)]D[NHexGly]YLNRL[Ahp(2)]PVVCS-OH; thioether N-14) showed a pIC50 (read-out: HC CBA mVISTA IC50) of 7.74.
`CCCCCCN1CC(=O)N[C@@H](Cc2ccc(O)cc2)C(=O)N[C@@H](CC(C)C)C(=O)N[C@@H](CC(=O)O)C(=O)N[C@@H](CCCNC(=N)N)C(=O)N(C)[C@@H](CCCC)C(=O)N[C@@H](CCCCC)C(=O)N2CCC[C@H]2C(=O)N[C@@H](C(C)(C)C)C(=O)N[C@@H](CC(N)=O)C(=O)N[C@H](C(=O)NCCOCCOCC(=O)N[C@@H](CC(=O)NCCOCCOCC(=O)NCCCCCCCCCCC(=O)O)C(=O)O)CSCC(=O)N[C@@H](Cc2ccccc2)C(=O)N[C@@H](Cc2ccc(O)cc2)C(=O)N[C@@H](CC(=O)O)C1=O` [Example 2213] ({CH2CO}-FYD[NHexGly]YLDR[NMeNle][Ahp(2)]P[Tle]NC[AEEA][βAsp][AEEA][Aun]-OH; thioether N-14) showed a pIC50 (read-out: HC CBA mVISTA IC50) of 7.48.
Molecule `CCCCCCN1CC(=O)N[C@@H](Cc2ccc(O)cc2)C(=O)N[C@@H](CCCC)C(=O)N[C@@H](CC(N)=O)C(=O)N[C@@H](CCCNC(=N)N)C(=O)N[C@@H](CC(C)C)C(=O)N[C@@H](CCCCC)C(=O)N2CCC[C@H]2C(=O)N[C@@H](C(C)C)C(=O)N[C@@H](CC(=O)O)C(=O)N[C@H](C(=O)NCCOCCOCC(=O)N[C@@H](CCC(=O)O)C(=O)NCCOCCOCC(=O)NCCCCCCCCCCC(=O)O)CSCC(=O)N[C@@H](Cc2cccc(C)c2)C(=O)N[C@@H](Cc2c[nH]c3ccccc23)C(=O)N[C@@H](CC(=O)O)C1=O` [compound 2297] ({CH2CO}-[Phe(3-Me)]WD[NHexGly]Y[Nle]NRL[Ahp(2)]PVDC[AEEA]E[AEEA][Aun]-OH; thioether N-14) has a pIC50 (cell-based binding high-content assay, read-out: HC CBA miPrISTA IC50) of 7.68.
With `CCCCCCN1CC(=O)N[C@@H](Cc2ccc(O)cc2)C(=O)N[C@@H](CCCC)C(=O)N[C@@H](CC(N)=O)C(=O)N[C@@H](CCCNC(=N)N)C(=O)N(C)[C@@H](CCCC)C(=O)N[C@@H](CCCCC)C(=O)N2CCC[C@H]2C(=O)N[C@@H](C(C)C)C(=O)N[C@@H](CO)C(=O)N[C@H](C(=O)N[C@@H](CC(=O)NCCOCCOCC(=O)NCCCCCCCCCCC(=O)O)C(=O)O)CSCC(=O)N[C@@H](Cc2ccccc2)C(=O)N[C@@H](Cc2c[nH]c3ccccc23)C(=O)N[C@@H](CC(=O)O)C1=O` [Example 2161] ({CH2CO}-FWD[NHexGly]Y[Nle]NR[NMeNle][Ahp(2)]PVSC[βAsp][AEEA][Aun]-OH; thioether N-14) the pIC50 (read-out: HC CBA mVISTA IC50) was 7.52.
